Reference: patent US20120141382

What was measured:
Assay in all cases: binding assay
eGFP = eGFP (UniProt P42212); conditions: CITED WO 2007/147149; roughly equivalent affinity to GFP; purified recombinant protein
eCFP = eCFP (UniProt P42212); conditions: CITED WO 2007/147149; roughly equivalent affinity to GFP; enhances fluorescence; purified recombinant protein
eYFP = eYFP (UniProt P42212); conditions: CITED WO 2007/147149; roughly equivalent affinity to GFP; enhances fluorescence; purified recombinant protein
[1] = biological target: Green fluorescent protein (GFP) (UniProt P42212); conditions: CITED WO 2007/147149; inhibits GFP fluorescence; purified recombinant protein; protein details: Millipore

GCGUGAGACGUCUUGAUGAAAUCCGGCUCGGCAAUGGUUCGUGGCGAAUUGGGUGGGGAAAGUCCUUAAAAGAGGGCCACCACAGAAGCUUGUGGAGUUAACAGCAA [AptGFP-AP3]
binding result (eGFP): binds
binding result (eCFP): binds
binding result (eYFP): binds
Kd [1]: 14.4 nM

The exact form of at least one protein or probe is not confirmed.
